Primary screen of a compound library

From ChEMBL document CHEMBL3988442, “University of Dundee, Small-Polar-MMV Screening Library” (2021).

Values are the deposited “Percent Effect”, in %. The record does not define 0% and 100%; most values in the screen are far below 50% and negative numbers occur (in some assays of this library far below -100). This is an unselected part of the compounds tested. Two or more numbers in one place are separate tests of the same structure; such repeats can differ widely.

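Viability assay of Plasmodium falciparum sporozoites; the read-out is not stated. The concentration is filed as 10 mM, unlikely as a test dose, so the dose is not known. The record gives no direction; compounds that gave an IC50 in retests scored well above the rest, so higher reads as lower viability. Strong results were mostly tested again. Size under these conditions: about 34,000 compounds, about 280 of them at 50% or above in at least one test.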

structure,Percent Effect
N[C@H]1CN(C(=O)c2ccc3[nH]c(CO)nc3c2)C[C@@H]1c1ccccc1,3.223
NC(=O)CN1CC(O)c2ccccc2S1(=O)=O (stereo not shown),-38.96
Cc1noc(CN(Cc2cccs2)C2CCS(=O)(=O)C2)n1 (stereo not shown),8.391
Cc1cc(C(=O)N2CCn3c(COCC4CCCC4)cnc3C2C)on1 (stereo not shown),4.136
[H][C@]12CC[C@]([H])(CN(Cc3ccc(F)cc3)C1)N(Cc1snnc1C)C2,-16.74 & -17.51
O=C(NC1CC1)N1CCOCC2(CCN(Cc3cccs3)C2)C1.O=C(O)C(F)(F)F (stereo not shown),1.686
CS(=O)(=O)N[C@@H]1CCN(Cc2cccs2)[C@H]1Cc1cccnc1,-0.6734
CCCN1CCN(C(=O)CCn2cccc2)CC1,-15.89
CC(C)Cn1ncc(C(=O)NS(=O)(=O)C2CCCC2)c1C1CC1,-9.602
C[C@@H]1C[C@H](C(F)(F)F)n2nc(C3CCN(S(=O)(=O)N(C)C)CC3)cc2N1,-0.8938
Cc1cc(C)n(CC2CCCN2C(=O)c2c[nH]c3ncccc23)n1 (stereo not shown),-2.089
O=C(COCc1nc(-c2ccncc2)no1)N1CCCCCC1,-1.963
CCOCc1nc(CSc2ccncc2)n(C2CCN(C)CC2)n1,11.72
CNC(=O)[C@@H]1CN(C(=O)CCOC)C[C@H]1c1ccnc(N2CCCC2)n1.Cl,1.522
COc1ccc(NC(=O)NC(C)(C)c2noc(C)n2)cc1,-12.16
CCS(=O)(=O)N1CCCn2nnc(Cn3cccc3)c2C1,5.394
CS(=O)(=O)c1cn[nH]c1C1CCCCN1C(=O)Cc1cccnc1 (stereo not shown),13.95
Cc1cc(CN2CCN(C(=O)NCc3cccs3)CC2)no1,5.993
Cc1ccc(NC2CCN(C(=O)c3cccc4c3ccn4C)CC2)nn1,12.46
[H][C@]12CCC[C@@]1(COC)CN(C(=O)COC)C2,-0.5993
Cc1cccc(CN2CCC(C3Nc4ccccc4S(=O)(=O)N3)CC2)n1 (stereo not shown),-3.897
Cc1nn2cccnc2c1C(=O)N1CCCC(n2ccnc2C)C1 (stereo not shown),-2.463
Cc1nc2c(c(NC3CC3)n1)CCN(C(=O)CCO)CC2.O=C(O)C(F)(F)F,7.239
CN1C[C@@H](C(=O)N2CCCOCC2)[C@@]2(CCc3ccccc3C(=O)N2)C1,-5.438
Cc1nn(C)c(N(C)C)c1CNC(C)COc1ccccc1F (stereo not shown),-6.989
O=C(c1ccc(Cn2ccccc2=O)o1)N1CCC2(CC1)OCCO2,-7.954
Cc1nc(C)c(C(C)NCc2c(C)nn(CC(C)C)c2N(C)C)s1 (stereo not shown),-20.83
CCOCC(O)CN1CCN(C(=O)c2cccc(OC)c2)CC1 (stereo not shown),1.671
Cc1ccc(C2COCCN2C(=O)c2ccc(C)s2)o1 (stereo not shown),-10.78
Cn1cccc1CN1CCC2(CCCN(C(=O)Cc3cccnc3)C2)C1 (stereo not shown),4.581
Cn1ncc2c1NC(=O)CC2c1ccc(O)cc1 (stereo not shown),6.965
O=C(Nc1ccccc1)N1CCn2nnc(COc3cccnc3)c2C1.O=C(O)C(F)(F)F,-12.19
Cc1cc(C(=O)NCCN2CCCC(C)C2)nn1C(C)(C)C (stereo not shown),6.983
O=C(CCc1nc2cccnc2[nH]1)NCc1ccc2c(c1)OCO2,5.702
CCS(=O)(=O)N1CCC2(CC1)CN(c1cccnc1)C(=O)CO2.O=C(O)C(F)(F)F,7.861
CCCC1(CO)CCCN(c2ncnc3c2c(C)nn3C)C1 (stereo not shown),-5.692
CCn1c(C(=O)N2CCN(CC(C)O)CC2)cc2ccccc21 (stereo not shown),-0.3271
CCN(CC)CCNc1ncc(-c2cc(C)no2)c(-c2ccoc2C)n1,-16.23
Cn1nc2c(cc1=O)CN(CCc1nc3ccccc3c(=O)[nH]1)CC2,-6.257
CCNC(=O)[C@@H]1C[C@@H](N)CN1C(=O)c1[nH]c2ccccc2c1CC,-1.125
O=C(NCc1cc[nH]n1)N(CCCO)C1CCc2ccccc21 (stereo not shown),-17.16
CC(C)=CCN1CCN(Cc2nccn2C)C(C)C1 (stereo not shown),-4.379
O=C(O)C(F)(F)F.[H][C@]12CCC(=O)N(c3cccnc3)[C@@]1([H])CCN2C(=O)c1ccc(C#N)cc1,4.571
CN(Cc1cn2c(n1)CN(C(=O)CC1CC1)CC2)Cc1ccco1.O=C(O)C(F)(F)F,-8.42
O=C(CCCN1CCCCC1)NC(C(=O)O)c1ccc(Cl)cc1 (stereo not shown),-8.564
CN(C)C(=O)CN1CCC(c2cncc(-c3cccc(Cl)c3)n2)CC1,5.47
CCOCc1nn(C)c2c1CN(Cc1cccs1)CC2.O=C(O)C(F)(F)F,23.82
Cc1ncsc1CN1CCOC(C)(C(=O)N(C)C)C1 (stereo not shown),3.581
CCOCc1nc(CSc2ccncc2)n(C)n1,-0.7667
Cc1cccc(CN2CCOCC3(CCN(C4CCOCC4)C3)C2)c1.O=C(O)C(F)(F)F.O=C(O)C(F)(F)F (stereo not shown),-3.163
O=C(O)C(F)(F)F.c1cc(COC[C@H]2CCC[C@]23CNCCO3)ccn1,13.53
Cc1cc(OCC(=O)N2CCCC(c3noc(C(C)C)n3)C2)no1 (stereo not shown),2.432
Cc1ccc(N2CCc3ncnc(N(C)C)c3CC2)nn1,5.429

Some entries from above, unchanged:

- CCS(=O)(=O)N1CCC2(CC1)CN(c1cccnc1)C(=O)CO2.O=C(O)C(F)(F)F : 7.861%
- Cc1cc(CN2CCN(C(=O)NCc3cccs3)CC2)no1 : 5.993%
- O=C(COCc1nc(-c2ccncc2)no1)N1CCCCCC1 : -1.963%
- CC(C)Cn1ncc(C(=O)NS(=O)(=O)C2CCCC2)c1C1CC1 : -9.602%
- Cc1ncsc1CN1CCOC(C)(C(=O)N(C)C)C1 (stereo not shown) : 3.581%
- Cc1ccc(N2CCc3ncnc(N(C)C)c3CC2)nn1 : 5.429%
- CCOCc1nc(CSc2ccncc2)n(C2CCN(C)CC2)n1 : 11.72%